Measurements as given in PMC7819943, “Rice protein-binding microarrays: a tool to detect cis-acting elements near promoter regions in rice”.
Some of the results follow.

Sequences of proteins named here, by UniProt entry; tags and fusion partners are left off.
UniProt Q0JBA9, entry or part of it: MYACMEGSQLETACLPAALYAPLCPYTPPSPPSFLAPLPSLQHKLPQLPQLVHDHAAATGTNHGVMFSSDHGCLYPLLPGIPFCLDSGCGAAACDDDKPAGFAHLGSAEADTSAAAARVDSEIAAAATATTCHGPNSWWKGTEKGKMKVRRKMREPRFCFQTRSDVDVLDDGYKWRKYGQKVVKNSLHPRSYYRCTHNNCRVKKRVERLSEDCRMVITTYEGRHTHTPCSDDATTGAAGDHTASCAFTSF

What follows are sequences tested against OsWRKY34 (Oryza sativa, UniProt Q0JBA9 1-250) (assay: protein-binding microarray (RPBM); PBS, 2% BSA, 51.3 ng/ul salmon testes DNA, 50 uM zinc acetate, 200 nM TF, 25 C, 1 h; high values mean tight binding). Details: protein: recombinant; tags: N-terminal polyhistidine and DsRed monomer fusion (pET32a); label: CyDye5-dUTP incorporated in the synthesized complementary strand; 3' TTTTT single-stranded linker to array surface; dsDNA, one strand shown.
Outline: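 Binding signal here means per-feature fluorescence intensity in arbitrary units. The values were read on an Axon 4000B scanner after a custom Agilent array, double-stranded by primer extension with Cy5-dUTP, was incubated with 200 nM protein at 25 °C for 1 h in PBS with 2% BSA, salmon testes DNA and 50 µM zinc acetate, then washed. The proteins were transcription factors with an N-terminal polyhistidine tag and DsRed, expressed in E. coli BL21-CodonPlus and purified on Ni–NTA.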

Sequence	binding signal
ACAGCCATGTTCCCACGTCGCGCCTGCTTCCGGCGGAAGTCGGAGTCACCTAGTGCAG	9340 fluorescence intensity (a.u.)
CATGCGGCCTGGTGATATAAGTACATTAGTTGATTCTCCCCGGAGTCACCTAGTGCAG	8940 fluorescence intensity (a.u.)
GTTTTTCCTGTGGTCCAATCAAACGGCCATTCCTGTGTTTCGGAGTCACCTAGTGCAG	14300 fluorescence intensity (a.u.)
CCAGCAGCAGTCCACCACCCCGCCGCTTCCCCGCAAAAACCGGAGTCACCTAGTGCAG	8300 fluorescence intensity (a.u.)
ACAAATTAGTTAAACTTGCACCTTTCTTGTTGCTACCTCACGGAGTCACCTAGTGCAG	8660 fluorescence intensity (a.u.)
GAGTAGAGTATTAATTTCACACCCTCACTTCTGCCACATTCGGAGTCACCTAGTGCAG	8250 fluorescence intensity (a.u.)
AGATGACGCCGTTGACTTTTTATCACATGTTTAACCATTCCGGAGTCACCTAGTGCAG	42300 fluorescence intensity (a.u.)
ATTTTTTTTCCCAAATCCATTTATTTTCCTCTCTTCTCTCCGGAGTCACCTAGTGCAG	9970 fluorescence intensity (a.u.)
GGTTGGGGCTACGTGTTTGTGTTCTCGTATAAGGGTCGTGCGGAGTCACCTAGTGCAG	13800 fluorescence intensity (a.u.)
CAACTTGGTTCAAACGGGGTTTGGATTGTTGTGGTTCATTCGGAGTCACCTAGTGCAG	11300 fluorescence intensity (a.u.)
TTAGCACATGTTTGACCGTTCGTCTTATTCAAAAACTTTTCGGAGTCACCTAGTGCAG	12600 fluorescence intensity (a.u.)
AGGTTGGGTATAAAATATCGTCGCGGATCACAAAATATATCGGAGTCACCTAGTGCAG	9230 fluorescence intensity (a.u.)
GCTTCTTAGTTCTCAGCCACACCGCAAGCAGAAACGTGCACGGAGTCACCTAGTGCAG	8820 fluorescence intensity (a.u.)
AGGACCATCTGGATATGTTTGTGTTTTCTGGATTTCTGAACGGAGTCACCTAGTGCAG	9520 fluorescence intensity (a.u.)
ATAAGTTAATTTAGTATGGGATGCGACATCTGTTAGTACTCGGAGTCACCTAGTGCAG	8160 fluorescence intensity (a.u.)
GATAAGCTCAACCCATCGATTCCGCTAAGTCAATCCTACCCGGAGTCACCTAGTGCAG	8680 fluorescence intensity (a.u.)
GGGTTGCCGCTACAGGCTCAGCTCTCCGTCGCTCCGCCTGCGGAGTCACCTAGTGCAG	9450 fluorescence intensity (a.u.)
TTTGGATTGATCATGGTCATTTGTACTTTTGTAGTCTTTACGGAGTCACCTAGTGCAG	8570 fluorescence intensity (a.u.)
CCTACACACGTAAACTCTTAACTTTTTTTTTCCAAACTACCGGAGTCACCTAGTGCAG	8410 fluorescence intensity (a.u.)
GCCCGTCTTATAATAATTTTTTTTATATTTAGTACTTTTACGGAGTCACCTAGTGCAG	9530 fluorescence intensity (a.u.)
GTGTGGTCAATTGATCGACTGATCTGTTGCTCCCCGCTTCCGGAGTCACCTAGTGCAG	8400 fluorescence intensity (a.u.)
CGCCACCACCAACCGATTCAGGCCGCGCACGCCATTAATGCGGAGTCACCTAGTGCAG	9750 fluorescence intensity (a.u.)
ACAGTCCCACACCCTCGCCGCACCCGTTTCCGACGGCGATCGGAGTCACCTAGTGCAG	10900 fluorescence intensity (a.u.)
CAAATAAAACCCCTTTGCCTGTTAGCTTCGGCCACTCTCACGGAGTCACCTAGTGCAG	8240 fluorescence intensity (a.u.)
TCCGTTTACATTCGTTACACTACAACTTTTTCCTTGTTATCGGAGTCACCTAGTGCAG	9360 fluorescence intensity (a.u.)
CTATATCACCTAATCTTTGACATGTATTTCTTTTTTATGACGGAGTCACCTAGTGCAG	8410 fluorescence intensity (a.u.)
GTCTCCGTCTCCGTCCTCTCTCGCTTCCGTACTACTCCACCGGAGTCACCTAGTGCAG	10600 fluorescence intensity (a.u.)

Sequence	binding signal
GTACATGGCACAGCTCTCTCATTCCGGTTCCTACCAAACCCGGAGTCACCTAGTGCAG	9110 fluorescence intensity (a.u.)
TTTTAGAATTGGATCTTGTGGGGTTGAAATTTTAATTTATCGGAGTCACCTAGTGCAG	9180 fluorescence intensity (a.u.)
AATCGTGGATGGGGAATCGGTGACGCGCGGGTGGGGCGACCGGAGTCACCTAGTGCAG	8360 fluorescence intensity (a.u.)
AGCGCCCCGTTGCCGCAGCTGCTGCTCCCTCTGCTGCTTCCGGAGTCACCTAGTGCAG	10900 fluorescence intensity (a.u.)
TCCGTTGACTCCTACCTCCTTACACTCGGCTTACCTCTCTCGGAGTCACCTAGTGCAG	16300 fluorescence intensity (a.u.)
AAATGGGGAGGAGTGCGGATGACATGTGGGTCCCACAAATCGGAGTCACCTAGTGCAG	8410 fluorescence intensity (a.u.)
GGGGTTTGTCTAAAATTCGAGCTTGGTTTGCTTCCGGTTTCGGAGTCACCTAGTGCAG	13400 fluorescence intensity (a.u.)
CAATCATCAGCCACGTCCGCCGCCGCTTCAGCTGGATCGGCGGAGTCACCTAGTGCAG	8220 fluorescence intensity (a.u.)
TCATCAGTTCACAAATTAAGTCGTTATTTCGTTTCGTTTCCGGAGTCACCTAGTGCAG	9350 fluorescence intensity (a.u.)
TAGATGGGCACTCCGCCACTCCGTAGTTCAGTTGTACCATCGGAGTCACCTAGTGCAG	8290 fluorescence intensity (a.u.)
TGCTCTGAACTCCCAACCGTCCCAACCGACGCCGGCCATCCGGAGTCACCTAGTGCAG	8090 fluorescence intensity (a.u.)
CGCTCATCCTCTTGCTTTTTGCTTGCCGTGGCGAACGTCGCGGAGTCACCTAGTGCAG	10900 fluorescence intensity (a.u.)
CATATTCTTAATGGGGTATCTGTCGGGTTCAAATGTAGAACGGAGTCACCTAGTGCAG	10900 fluorescence intensity (a.u.)
CCTCTTCTGTACCCTACTCTCTCGCTCCCTTCCGATTTCCCGGAGTCACCTAGTGCAG	9450 fluorescence intensity (a.u.)
TCCATCGATCGGTTTGGTCCCCGCCAATCACCCCAACCATCGGAGTCACCTAGTGCAG	9830 fluorescence intensity (a.u.)
CTCTCCGTGCATCTATATAAACTGGCCCTGATCAATCTCACGGAGTCACCTAGTGCAG	9650 fluorescence intensity (a.u.)
CCACCCGCTCATCTATATAAACCCGCCCCGGCCGGCCACCCGGAGTCACCTAGTGCAG	9920 fluorescence intensity (a.u.)
AATTCGTCCTCGACTCGTCTTCGTCTTCGCCTCGTCGTCCCGGAGTCACCTAGTGCAG	12700 fluorescence intensity (a.u.)
TCTCAATGTGTAGGTTGAATTTCAATTTGATTTTGATTTTCGGAGTCACCTAGTGCAG	9250 fluorescence intensity (a.u.)
CCGTATCATAATCACGTCCTGCCACCCTTTTAACTAATCACGGAGTCACCTAGTGCAG	10500 fluorescence intensity (a.u.)
CTTCATTTCCATGTCCTGTTTGTACTAGGTTATTGGAATCCGGAGTCACCTAGTGCAG	8430 fluorescence intensity (a.u.)
TTGGGGTTCGTGGGGTCGAGAGGAAGGTGCGTGATCATACCGGAGTCACCTAGTGCAG	11500 fluorescence intensity (a.u.)
TCTCTCTCACTCTTCCGGTCTTCCCTGGGCAGGCTAGCCGCGGAGTCACCTAGTGCAG	8840 fluorescence intensity (a.u.)
CGTTTCTCATTAGTATGCCATATTAAAACTGTTATCCATTCGGAGTCACCTAGTGCAG	8310 fluorescence intensity (a.u.)
GGCTGCGCGCGACTCGCGGTCGACGAGGGTGGGGCCGCCGCGGAGTCACCTAGTGCAG	8220 fluorescence intensity (a.u.)
AATTTTTATTCCTGTTTCCGTCGTGGCCCATCTGTGATGACGGAGTCACCTAGTGCAG	8350 fluorescence intensity (a.u.)
GCTAGATTCATTCCGCGAGGAGGTGCAGGGTTGTTTTCTGCGGAGTCACCTAGTGCAG	9650 fluorescence intensity (a.u.)

Rewritten with each value named: part of the list above.
CCTCTTCTGTACCCTACTCTCTCGCTCCCTTCCGATTTCCCGGAGTCACCTAGTGCAG
  binding signal = 9450 fluorescence intensity (a.u.)
TCCATCGATCGGTTTGGTCCCCGCCAATCACCCCAACCATCGGAGTCACCTAGTGCAG
  binding signal = 9830 fluorescence intensity (a.u.)
